A short description of series [1]: Circular Dichroism (CD) determination of secondary structure in membrane mimic environments. The series is classed as physicochemical. As to the method:
Circular Dichroism (CD) measurements are made with an AVIV 62DS spectropolarimeter (AVIV Associates, Lakewood, N.J.). The AVIV 62DS is fitted with a thermoelectric temperature controller and the sample temperature maintained at 25° C. Peptide-solvent solutions are measured in 0.1 mm light path demountable cells scanned from 250 nm to 195 nm at a rate of 10 nm/min and a sample interval of 0.2 nm. The instrument is routinely calibrated with (+)-10-camphorsulfonic acid (1 mg/ml) and a 1-mm path length cell (Johnson, 1990 Johnson, W. C. J. 1990, “Protein Secondary Structure and Circular Dichroism: A Practical Guide.” Proteins Struct. Funct. Genet. 7:205-214, and the ellipticity expressed as the mean residue ellipticity, θMRE (deg cm^2 dmol^−1). Peptide sample concentrations are determined by quantitative amino acid analysis (UCLA Micro Sequencing Facility, Los Angeles, Calif. The percentage of α-helix conformation in the peptide is estimated using the formalism of Chen et al. Chen YH, Yant JT, Chaus KH. 1974. “Determination of the Helix and β Form of Proteins in Aqueous Solution by Circular Dichroism.” Biochemistry 13:3350-3359. This approach assumes the maximum theoretical ellipticity for a given peptide or protein at 222 nm may be derived from the number of amino acid residues n, and the ellipticity at 222 nm of a helix of infinite length described by Equation (1).
The secondary structure of the SP-B1-25 (Cys-11→Ala-11) variant disulfide linked homodimer is accessed in two different structure promoting membrane mimic environments using Circular Dichroism spectroscopy.
Referring to FIG. 6, when the peptide is added to POPG liposomes (a major lipid component of surfactant lipid) the helical component is similar to that observed in the organic solvent system. […] [Lincomb Perczel, A., Park, K., Fasman, G. D., Analysis of the circular dichroism spectrum of proteins using the convex constraint algorithm: A practical guide. Analytical Biochem 203:83-93, 1992] [Compare Perez-Gil, J., A. Cruz, Casals, C. Solubility of hydrophobic surfactant Structural studies on SP-B and SP-C in aqueous organic solvents and lipids. Biochim. Biophys Acta, 1168:261-270, 1993; Bruni, R., Taeusch, W., and Waring, A., “Surfactant protein SP-B: Lipid interactions of synthetic peptides representing the amino terminal amphipathic domain,” Proc. Nat. Acad. Sci. USA, 88:7451-7455 (1991); Gordon, L. M., Horvath S., Longo, M., Zasadzinski, J. A. N., Taeusch, H. W., Faull, K., Leung, C., and Waring, A. J., “Conformation and molecular topography of the N-terminal segment of surfactant protein B in structure-promoting environments,” Protein Science 5:1662-1675 (1996)].
In general terms: Circular dichroism is widely used to follow secondary structure.

A short description of series [2]: general procedure: Fmoc solid-phase peptide synthesis; prederivatized Fmoc-Gly resin (Calbiochem-Nova) or PEG-PA resin (Perceptive Biosystems); HBTU (FastMoc). The conditions noted are these: oxidative folding step, on monomer (SEQ ID NO:3), estimated by electrospray MS, freeze dried twice from acetonitrile:10 mM HCl to remove acetate counterions.
[3] abbreviates: POPG surfactant lipid liposomes, FIG. 6.

Regarding “SP-B1-25 dimer: Synthetic dimer of N-terminal residues 1-25 of human SP-B, Cys 11→Ala 11 variant, disulfide linked at Cys8-Cys8 (FPIPLPYCWLARALIKRIQAMIPKG; disulfide-linked homodimer via Cys8; (11)..(11) SP-B 1-25 (Cys-11 > Ala-11) variant; listed as Homo sapiens)”, in series [1] (setting [3]), the “beta sheet (deconvolution of CD spectra)” value is roughly 17.1%, the “beta turn (deconvolution of CD spectra)” value is recorded as roughly 28.2%, the “disordered conformations (deconvolution of CD spectra)” value was roughly 10.0% and the “helix (deconvolution of CD spectra)” value is “about 44.7%”. Besides, the “helical conformations (ellipticity at 222 nm, formalism of Chen et al.)” value in series [1] (TFE:phosphate buffer, 1:1, v:v, 25° C., FIG. 5) is listed as “about 41%”.

Turning to “SP-B1-25 (Cys-11→Ala-11) variant disulfide linked homodimer (FPIPLPYCWLARALIKRIQAMIPKG; disulfide-linked homodimer via Cys8; (11)..(11) SP-B 1-25 (Cys-11 > Ala-11) variant; listed as Homo sapiens)”, in series [2], the oxidative folding yield result is given as “essentially 100%”.

The values above are taken from patent US6660833B1 (Harbor-UCLA Research and Education Institute, priority 2000, dated 2003).
